Test results taken from PubChem BioAssay AID330 (DTP/NCI, 2004).
The list does not hold the whole screen: it gathers tests that were run many times, whatever their T/C, doses with no T/C, and many T/C values between a quarter and a half above the control. Further doses and runs are listed elsewhere. T/C gives the treated animals as a percentage of the vehicle group. Some entries give survivors of the animals treated and no T/C: the source holds a T/C of zero for them, seemingly a mark for toxic or unscored doses. Some doses without a T/C left all or most animals alive at the check, yet need not have been tolerated: the source hardly ever lists a survival T/C far under the control, and the zero likely stands for such cases as well. Counts of survivors are from the toxicity check (mostly the fifth day) where no day follows; animals may have died later. Schedules are NCI's codes, taken here to give the interval after Q, in days (D) or hours (H), and the number of doses after X. Some molecules as drawn cover several salts, stereoisomers or complexes of the source; a dose is that of the sample tested. Some entries were tested several times; their values stand side by side, smallest first. For survival time, the PubChem record calls one and a half times the control and up active, and a quarter to a half above the control has no call in these data; cut-offs in other NCI protocols can differ. Some T/C values carry the count of animals alive at the toxicity check (mostly the fifth day); without a count, all were alive then.

Tested on: P388 leukemia ip, CD2F1 mice, survival T/C
Assay: NCI In Vivo Anticancer Drug Screen. Data for tumor model P388 Leukemia (intraperitoneal) in CD2F1 (CDF1) mice
Settings: T/C endpoint: median survival time, higher T/C = longer survival
[1] = dose: 120.0 mg/kg/injection, schedule: Q01DX005 (ip), vehicle: saline with Tween-80
[2] = dose: 240.0 mg/kg/injection, schedule: Q01DX005 (ip), vehicle: saline with Tween-80
[3] = dose: 200.0 mg/kg/injection, schedule: Q01DX009 (ip), vehicle: saline with Tween-80
[4] = dose: 100.0 mg/kg/injection, schedule: Q01DX009 (ip), vehicle: saline with Tween-80

How did the survivor count (dose: 100.0 mg/kg/injection, schedule: Q01DX001 (ip), vehicle: saline with Tween-80) turn out when `COC(=O)c1c(C(=O)OC)c2ccc3ccccc3n2c1-c1ccccc1` was run?
The survivor count was 6 of 6.

What does the source list for `CC(C)(C)[OH+][O-].[O-]c1ccc(Cl)cc1C=Nc1ccc(Cl)cc1[O-].[O]=[V]`?
survivor count [1]: 0 of 6; survivor count [2]: 0 of 6

Which survivor count [3] does the source give for `CCS/C(C#N)=C/c1ccccc1Cl` here?
Its survivor count is 1 of 6.

What does the source list for `NC(=O)CC(NC(=O)OCC1c2ccccc2-c2ccccc21)C(=O)O` (stereo not given)?
survivor count (dose: 100.0 mg/kg/injection, schedule: Q01DX005 (ip), vehicle: Klucel (hydroxypropylcellulose) (HPC)): 1 of 6; survivor count (dose: 200.0 mg/kg/injection, schedule: Q01DX005 (ip), vehicle: Klucel (hydroxypropylcellulose) (HPC)): 0 of 6

Which survivor count (dose: 25.0 mg/kg/injection, schedule: Q01DX009 (ip), vehicle: distilled water + Tween-80) does the source give for `[S-]c1n[n+](-c2ccccc2)no1` here?
The survivor count was 6 of 6.

What about the survivor count (dose: 50.0 mg/kg/injection, schedule: Q01DX009 (ip), vehicle: distilled water + Tween-80) of the same compound?
Its survivor count is 5 of 6.

And the survivor count (dose: 100.0 mg/kg/injection, schedule: Q01DX009 (ip), vehicle: distilled water + Tween-80)?
Its survivor count is 3 of 6.

What about the survivor count (dose: 200.0 mg/kg/injection, schedule: Q01DX009 (ip), vehicle: distilled water + Tween-80) of the same compound?
Its survivor count is 1 of 6.

What does the source list for `COc1ccc(NC(=O)Nc2ccc(NC(C)=O)cc2)c(OC)c1`?
survivor count (dose: 60.0 mg/kg/injection, schedule: Q01DX005 (ip), vehicle: saline with Tween-80): 6 of 6; survivor count [1]: 6 of 6; survivor count [2]: 5 of 6

`C=C(CN(C)C)C(=O)c1ccccc1` was tested. Which survivor count (dose: 7.5 mg/kg/injection, schedule: Q01DX005 (ip), vehicle: saline) did it give?
The survivor count was 1 of 6 and 4 of 6.

And the survivor count (dose: 10.0 mg/kg/injection, schedule: Q01DX005 (ip), vehicle: saline)?
Its survivor count is 1 of 6.

And the survivor count (dose: 15.0 mg/kg/injection, schedule: Q01DX005 (ip), vehicle: saline)?
Its survivor count is 0 of 6.

What about the survivor count (dose: 20.0 mg/kg/injection, schedule: Q01DX005 (ip), vehicle: saline) of the same compound?
Its survivor count is 0 of 6.

What about the survivor count (dose: 30.0 mg/kg/injection, schedule: Q01DX005 (ip), vehicle: saline) of the same compound?
Its survivor count is 0 of 6.

And the survivor count (dose: 60.0 mg/kg/injection, schedule: Q01DX005 (ip), vehicle: saline)?
The survivor count was 0 of 6.

What about the survivor count (dose: 120.0 mg/kg/injection, schedule: Q01DX005 (ip), vehicle: saline) of the same compound?
Its survivor count is 0 of 6.

What about the survivor count (dose: 240.0 mg/kg/injection, schedule: Q01DX005 (ip), vehicle: saline) of the same compound?
The survivor count was 0 of 6.

Which survivor count [1] does the source give for `CC1=NN(c2ccccc2)C(=O)/C1=C(\[O-])c1ccccc1.CC1=NN(c2ccccc2)C(=O)/C1=C(\[O-])c1ccccc1.[Co+2]` here?
The survivor count was 3 of 6.

What about the survivor count [2] of the same compound?
The survivor count was 0 of 6.

For `C1CN1P1(N2CC2)=NP(N2CC2)(N2CC2)=NP(N2CC2)(N2CC2)=N1`, which survivor count (dose: 35.0 mg/kg/injection, schedule: Q01DX009 (ip), vehicle: saline) is on record?
Its survivor count is 6 of 6.

And the survivor count (dose: 50.0 mg/kg/injection, schedule: Q01DX009 (ip), vehicle: saline)?
Its survivor count is 6 of 6.

With `CC(C)c1ccc2nc3ccc(C(=O)NCCN(C)C)cn3c(=O)c2c1` as the compound, how does the survivor count (dose: 240.0 mg/kg/injection, schedule: Q01DX005 (ip), vehicle: Klucel (hydroxypropylcellulose) (HPC)) read?
The survivor count was 2 of 6.

With `Cc1ccc2nc(NC(=S)SSC(=S)Nc3nc4ccc(C)cc4s3)sc2c1` as the compound, how does the survivor count (dose: 50.0 mg/kg/injection, schedule: Q01DX009 (ip), vehicle: Klucel (hydroxypropylcellulose) (HPC)) read?
The survivor count was 6 of 6.

And the survivor count (dose: 100.0 mg/kg/injection, schedule: Q01DX009 (ip), vehicle: Klucel (hydroxypropylcellulose) (HPC))?
The survivor count was 0 of 6.

What about the survivor count (dose: 200.0 mg/kg/injection, schedule: Q01DX009 (ip), vehicle: Klucel (hydroxypropylcellulose) (HPC)) of the same compound?
Its survivor count is 0 of 6.

What does the source list for `CN(N=O)C(=O)NCCCCCNC(=O)N(C)N=O`?
T/C [4]: 145 % of control [5 of 6 alive]; T/C [3]: 136 % of control [5 of 6 alive]; T/C (dose: 264.0 mg/kg/injection, schedule: Q01DX009 (ip), vehicle: saline with Tween-80): 131 % of control [5 of 6 alive]

Which survivor count (dose: 50.0 mg/kg/injection, schedule: Q01DX009 (ip), vehicle: saline with Tween-80) does the source give for `OC(c1cc2c(Cl)cc(Cl)cc2c2cc(C(F)(F)F)ccc12)C1CCCCN1` (stereo not given) here?
The survivor count was 5 of 6.

What about the survivor count [4] of the same compound?
The survivor count was 1 of 6.

What about the survivor count [3] of the same compound?
The survivor count was 0 of 6.
